Laboratory results from the supplement of paper PMC10849652.
The other results are listed elsewhere or left out.

The chains behind the UniProt entries cited, without tags or fusion partners. Where a name states a change or a piece, a line headed by the entry shows the natural chain unless it says otherwise.
UniProt Q8TAQ2, whole entry, looked up: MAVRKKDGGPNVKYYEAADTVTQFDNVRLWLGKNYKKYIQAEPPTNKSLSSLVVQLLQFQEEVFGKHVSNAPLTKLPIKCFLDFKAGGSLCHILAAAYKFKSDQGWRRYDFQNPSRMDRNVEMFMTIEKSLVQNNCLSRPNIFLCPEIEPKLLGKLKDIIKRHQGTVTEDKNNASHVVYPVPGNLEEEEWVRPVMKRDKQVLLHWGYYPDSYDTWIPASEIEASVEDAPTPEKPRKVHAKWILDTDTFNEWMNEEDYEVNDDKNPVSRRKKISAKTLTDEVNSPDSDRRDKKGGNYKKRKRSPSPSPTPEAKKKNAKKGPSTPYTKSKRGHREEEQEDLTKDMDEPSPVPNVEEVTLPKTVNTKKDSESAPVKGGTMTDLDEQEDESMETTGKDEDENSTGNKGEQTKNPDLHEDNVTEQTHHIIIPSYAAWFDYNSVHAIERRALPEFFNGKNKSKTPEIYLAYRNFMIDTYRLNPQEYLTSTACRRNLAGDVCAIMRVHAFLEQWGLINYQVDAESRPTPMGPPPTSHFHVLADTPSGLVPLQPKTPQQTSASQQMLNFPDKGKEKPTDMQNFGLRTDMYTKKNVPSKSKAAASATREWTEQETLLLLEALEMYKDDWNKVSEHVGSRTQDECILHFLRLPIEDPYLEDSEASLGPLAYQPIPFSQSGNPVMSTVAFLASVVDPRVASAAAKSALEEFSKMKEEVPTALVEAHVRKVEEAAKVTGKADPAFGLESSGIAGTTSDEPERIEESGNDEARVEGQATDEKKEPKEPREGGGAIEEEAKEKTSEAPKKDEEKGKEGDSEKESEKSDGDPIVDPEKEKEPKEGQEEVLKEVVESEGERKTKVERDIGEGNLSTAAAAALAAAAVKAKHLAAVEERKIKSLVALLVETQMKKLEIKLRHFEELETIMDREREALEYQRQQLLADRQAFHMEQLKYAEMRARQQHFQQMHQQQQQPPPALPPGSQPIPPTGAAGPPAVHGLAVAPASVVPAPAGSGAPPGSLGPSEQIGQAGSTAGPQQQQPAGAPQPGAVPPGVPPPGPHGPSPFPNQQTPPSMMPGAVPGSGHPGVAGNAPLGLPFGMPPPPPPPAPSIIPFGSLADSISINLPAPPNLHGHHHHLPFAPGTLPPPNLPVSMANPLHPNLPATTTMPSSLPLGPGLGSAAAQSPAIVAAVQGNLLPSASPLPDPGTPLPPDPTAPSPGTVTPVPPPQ
UniProt Q96H20: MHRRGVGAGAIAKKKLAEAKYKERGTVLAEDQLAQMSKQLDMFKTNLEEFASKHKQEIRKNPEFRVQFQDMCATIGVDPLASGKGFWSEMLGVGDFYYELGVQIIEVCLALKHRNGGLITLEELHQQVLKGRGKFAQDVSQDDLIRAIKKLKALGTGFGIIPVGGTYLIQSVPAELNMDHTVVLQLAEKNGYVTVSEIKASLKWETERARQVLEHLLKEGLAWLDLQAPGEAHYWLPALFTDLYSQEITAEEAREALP
UniProt Q96EX1: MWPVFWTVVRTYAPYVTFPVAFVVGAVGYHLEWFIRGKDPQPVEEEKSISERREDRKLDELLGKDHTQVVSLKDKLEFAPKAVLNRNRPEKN
UniProt P62316, whole entry, looked up: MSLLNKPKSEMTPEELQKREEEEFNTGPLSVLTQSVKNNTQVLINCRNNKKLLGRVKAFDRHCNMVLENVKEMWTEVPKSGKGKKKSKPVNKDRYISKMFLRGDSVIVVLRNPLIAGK
UniProt P62306, whole entry, looked up: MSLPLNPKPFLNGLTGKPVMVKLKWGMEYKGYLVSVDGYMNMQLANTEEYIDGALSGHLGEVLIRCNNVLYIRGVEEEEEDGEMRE
UniProt Q15506: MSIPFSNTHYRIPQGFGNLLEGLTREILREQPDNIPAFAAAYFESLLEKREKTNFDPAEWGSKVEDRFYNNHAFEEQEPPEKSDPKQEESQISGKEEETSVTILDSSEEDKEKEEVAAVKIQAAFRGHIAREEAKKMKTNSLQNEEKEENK
UniProt P09661: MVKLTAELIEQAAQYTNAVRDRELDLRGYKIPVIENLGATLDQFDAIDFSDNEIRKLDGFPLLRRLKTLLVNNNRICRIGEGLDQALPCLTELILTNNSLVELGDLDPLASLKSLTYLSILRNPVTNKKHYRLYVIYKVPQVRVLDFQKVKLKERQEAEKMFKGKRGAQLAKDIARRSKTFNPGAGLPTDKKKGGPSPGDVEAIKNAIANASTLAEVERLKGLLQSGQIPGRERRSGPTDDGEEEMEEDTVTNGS
UniProt Q9UQE7: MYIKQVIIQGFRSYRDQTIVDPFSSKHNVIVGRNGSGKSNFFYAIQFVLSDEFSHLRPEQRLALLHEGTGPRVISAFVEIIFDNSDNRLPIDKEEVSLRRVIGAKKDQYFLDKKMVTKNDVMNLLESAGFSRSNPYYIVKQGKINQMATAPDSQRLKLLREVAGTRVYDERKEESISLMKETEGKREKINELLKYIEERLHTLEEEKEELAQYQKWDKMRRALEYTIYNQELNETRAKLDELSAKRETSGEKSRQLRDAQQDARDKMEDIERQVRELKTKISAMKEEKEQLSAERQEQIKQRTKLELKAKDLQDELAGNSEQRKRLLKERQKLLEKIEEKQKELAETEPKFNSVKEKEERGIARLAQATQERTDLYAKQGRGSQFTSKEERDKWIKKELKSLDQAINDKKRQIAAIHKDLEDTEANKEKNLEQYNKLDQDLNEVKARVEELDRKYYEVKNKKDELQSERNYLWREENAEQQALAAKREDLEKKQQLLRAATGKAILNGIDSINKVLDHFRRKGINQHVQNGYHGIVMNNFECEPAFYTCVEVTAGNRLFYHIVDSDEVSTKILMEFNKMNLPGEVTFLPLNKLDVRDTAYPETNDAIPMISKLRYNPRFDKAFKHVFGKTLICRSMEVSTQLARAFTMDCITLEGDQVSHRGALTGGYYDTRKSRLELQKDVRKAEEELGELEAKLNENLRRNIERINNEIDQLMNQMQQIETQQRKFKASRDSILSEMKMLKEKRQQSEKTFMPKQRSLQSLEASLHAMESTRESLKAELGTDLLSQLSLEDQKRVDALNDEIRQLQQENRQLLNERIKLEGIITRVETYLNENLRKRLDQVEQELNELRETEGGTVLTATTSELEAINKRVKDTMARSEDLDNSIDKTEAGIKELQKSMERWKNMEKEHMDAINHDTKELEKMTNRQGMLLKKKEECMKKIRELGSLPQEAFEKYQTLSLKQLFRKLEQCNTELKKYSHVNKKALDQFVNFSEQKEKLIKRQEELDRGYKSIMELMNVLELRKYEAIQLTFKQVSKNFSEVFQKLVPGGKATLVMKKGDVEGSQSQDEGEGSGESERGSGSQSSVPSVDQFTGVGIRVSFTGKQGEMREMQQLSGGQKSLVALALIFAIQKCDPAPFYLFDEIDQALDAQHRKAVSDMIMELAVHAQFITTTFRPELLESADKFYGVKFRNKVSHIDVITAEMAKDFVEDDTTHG
UniProt Q96R06: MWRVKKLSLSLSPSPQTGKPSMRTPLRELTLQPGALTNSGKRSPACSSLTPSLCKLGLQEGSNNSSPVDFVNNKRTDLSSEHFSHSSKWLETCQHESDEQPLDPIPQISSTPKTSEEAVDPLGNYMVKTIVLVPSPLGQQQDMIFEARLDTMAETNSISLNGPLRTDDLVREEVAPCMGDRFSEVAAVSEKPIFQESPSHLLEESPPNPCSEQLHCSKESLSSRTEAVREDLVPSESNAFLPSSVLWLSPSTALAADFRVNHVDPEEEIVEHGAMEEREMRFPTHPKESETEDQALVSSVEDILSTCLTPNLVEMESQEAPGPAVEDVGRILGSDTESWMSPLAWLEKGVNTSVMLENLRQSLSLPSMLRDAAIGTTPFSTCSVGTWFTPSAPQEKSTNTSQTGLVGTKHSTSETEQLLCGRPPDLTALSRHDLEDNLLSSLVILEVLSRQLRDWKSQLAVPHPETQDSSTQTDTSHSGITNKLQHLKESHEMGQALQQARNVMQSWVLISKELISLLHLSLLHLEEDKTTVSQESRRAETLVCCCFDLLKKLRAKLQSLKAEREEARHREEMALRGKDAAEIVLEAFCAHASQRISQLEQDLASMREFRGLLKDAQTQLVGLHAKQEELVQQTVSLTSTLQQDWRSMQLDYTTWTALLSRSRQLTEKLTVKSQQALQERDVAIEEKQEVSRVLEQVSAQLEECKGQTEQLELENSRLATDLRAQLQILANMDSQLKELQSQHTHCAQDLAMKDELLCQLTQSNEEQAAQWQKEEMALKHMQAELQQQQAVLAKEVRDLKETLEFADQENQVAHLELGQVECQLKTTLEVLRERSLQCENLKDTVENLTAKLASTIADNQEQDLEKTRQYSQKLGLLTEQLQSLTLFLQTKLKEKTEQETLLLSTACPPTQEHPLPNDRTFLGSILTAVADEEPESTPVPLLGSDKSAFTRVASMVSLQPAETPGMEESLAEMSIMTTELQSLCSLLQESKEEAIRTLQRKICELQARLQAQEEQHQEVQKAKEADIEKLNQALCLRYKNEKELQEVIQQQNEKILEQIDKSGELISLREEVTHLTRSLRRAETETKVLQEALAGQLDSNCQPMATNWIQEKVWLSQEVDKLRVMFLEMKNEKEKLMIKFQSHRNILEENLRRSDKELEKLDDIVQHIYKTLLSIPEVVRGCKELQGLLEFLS
UniProt P62308, whole entry, looked up: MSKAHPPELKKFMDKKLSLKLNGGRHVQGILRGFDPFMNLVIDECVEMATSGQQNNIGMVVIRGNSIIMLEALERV
UniProt P09012, whole entry, looked up: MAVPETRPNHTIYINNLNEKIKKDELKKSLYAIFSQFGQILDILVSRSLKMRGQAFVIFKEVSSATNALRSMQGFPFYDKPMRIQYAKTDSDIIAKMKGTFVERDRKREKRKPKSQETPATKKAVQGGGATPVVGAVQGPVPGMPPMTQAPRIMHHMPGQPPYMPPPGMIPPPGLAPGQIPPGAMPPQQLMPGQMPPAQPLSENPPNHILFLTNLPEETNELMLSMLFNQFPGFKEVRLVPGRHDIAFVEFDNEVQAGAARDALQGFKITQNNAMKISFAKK
UniProt Q96SB8: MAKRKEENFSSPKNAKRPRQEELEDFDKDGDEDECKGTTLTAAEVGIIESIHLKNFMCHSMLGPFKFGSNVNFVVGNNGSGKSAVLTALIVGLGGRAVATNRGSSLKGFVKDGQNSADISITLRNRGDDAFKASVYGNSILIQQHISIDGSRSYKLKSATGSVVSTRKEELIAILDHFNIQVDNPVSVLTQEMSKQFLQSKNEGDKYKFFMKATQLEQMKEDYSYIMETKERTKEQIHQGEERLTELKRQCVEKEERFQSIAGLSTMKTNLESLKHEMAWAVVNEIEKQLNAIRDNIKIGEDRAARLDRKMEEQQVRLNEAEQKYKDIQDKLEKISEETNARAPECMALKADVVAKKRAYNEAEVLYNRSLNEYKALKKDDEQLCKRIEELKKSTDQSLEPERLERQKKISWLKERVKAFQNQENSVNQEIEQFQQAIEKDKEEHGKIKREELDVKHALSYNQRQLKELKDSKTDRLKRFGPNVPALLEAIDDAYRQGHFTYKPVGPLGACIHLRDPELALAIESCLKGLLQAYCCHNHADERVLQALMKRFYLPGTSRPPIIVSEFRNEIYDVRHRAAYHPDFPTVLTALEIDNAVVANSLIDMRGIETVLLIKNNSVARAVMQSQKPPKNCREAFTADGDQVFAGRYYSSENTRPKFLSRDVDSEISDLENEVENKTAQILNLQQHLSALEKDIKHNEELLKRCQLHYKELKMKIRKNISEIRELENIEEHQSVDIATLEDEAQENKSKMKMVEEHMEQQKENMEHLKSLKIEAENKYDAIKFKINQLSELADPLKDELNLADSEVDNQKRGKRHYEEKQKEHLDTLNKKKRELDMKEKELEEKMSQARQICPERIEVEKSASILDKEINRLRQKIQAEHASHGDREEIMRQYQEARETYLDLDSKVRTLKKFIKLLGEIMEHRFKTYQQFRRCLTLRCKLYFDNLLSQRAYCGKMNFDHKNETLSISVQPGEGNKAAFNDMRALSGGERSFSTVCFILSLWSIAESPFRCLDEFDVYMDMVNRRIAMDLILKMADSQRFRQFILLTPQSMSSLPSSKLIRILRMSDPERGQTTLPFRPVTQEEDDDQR
UniProt O95295: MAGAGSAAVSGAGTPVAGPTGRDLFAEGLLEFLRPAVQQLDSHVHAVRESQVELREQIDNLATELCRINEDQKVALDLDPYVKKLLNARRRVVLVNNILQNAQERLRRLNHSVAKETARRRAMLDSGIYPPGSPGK
UniProt Q6GMV2: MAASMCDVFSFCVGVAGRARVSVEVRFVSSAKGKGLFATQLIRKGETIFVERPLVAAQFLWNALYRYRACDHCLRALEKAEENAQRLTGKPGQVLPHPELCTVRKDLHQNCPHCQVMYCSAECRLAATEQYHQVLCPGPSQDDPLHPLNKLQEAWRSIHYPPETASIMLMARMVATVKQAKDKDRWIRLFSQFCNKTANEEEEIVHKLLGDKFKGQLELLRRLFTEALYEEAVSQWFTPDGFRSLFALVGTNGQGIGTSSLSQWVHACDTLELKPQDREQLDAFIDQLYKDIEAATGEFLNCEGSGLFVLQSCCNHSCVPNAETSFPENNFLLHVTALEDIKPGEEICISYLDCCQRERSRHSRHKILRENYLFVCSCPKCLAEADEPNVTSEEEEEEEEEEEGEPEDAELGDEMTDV

compound: O=C(CCCCCCC(=O)Nc1ccccc1)NO [vorinostat]; assay: log2 fold change, soluble protein after heating vs DMSO (PISA); higher = thermal stabilisation; K562 cells, 10 uM, 30 min; active = over 0.2 and 3.5 SD of the protein, either way, in both replicates (recomputed)
Method in brief: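 K562 cells at 2×10^6 cells/mL were exposed to 10 μM compound for 30 min, then aliquots were heated for 3 min across 48°C-58°C, pooled, and extracted in PBS containing 0.5% NP-40 at 4°C. The supernatant after 21,000xg for 90 min was taken as soluble protein and measured by TMTpro 16plex LC-MS/MS with channel sums equalised. Thermal stability is reported relative to control samples, with values from duplicates. Fold changes are given on a log2 scale.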

log2 fold change, inactive:
SMARCC2 (UniProt Q8TAQ2) 0.103
SNF8 (UniProt Q96H20) 0.02
SNCA (UniProt P37840) 0.07
SMS (UniProt P52788) -0.028
SMARCC1 (UniProt Q92922) 0.178
SLC9A1 (UniProt P19634) 0.026
SMIM12 (UniProt Q96EX1) -0.015
SMC2 (UniProt O95347) 0.018
SNU13, A0A3B3IUA2 -0.028
SMU1 (UniProt Q2TAY7) -0.034
SOCS2 (UniProt O14508) -0.023
SND1 (UniProt Q7KZF4) -0.039
SNRPD2 (UniProt P62316) -0.003
SNAP23 (UniProt O00161) -0.03
SNRPF (UniProt P62306) -0.003
SPA17 (UniProt Q15506) -0.182
SNRNP70 (UniProt P08621) -0.025
SLCO4A1 (UniProt Q96BD0) -0.004
SMC4 (UniProt Q9NTJ3) 0.031
SNRPA1 (UniProt P09661) -0.084
SMN1 (UniProt Q16637) -0.076
SMIM8 (UniProt Q96KF7) -0.129
SNRPC (UniProt Q5TAL2) 0.14
SMC3 (UniProt Q9UQE7) 0.088
SMC1A (UniProt Q14683) 0.1
SPAG5 (UniProt Q96R06) 0.017
SNRNP200 (UniProt O75643) -0.056
SLMAP (UniProt Q14BN4) 0.024
SNRPG (UniProt P62308) -0.071
SNAP29 (UniProt O95721) -0.05
SNRPA (UniProt P09012) -0.12
SMC6 isoform 2 (UniProt Q96SB8) -0.2
SMC1B isoform 3 (UniProt Q8NDV3) 0.048
SMIM26, A0A096LP01 0.162
SMARCA1 (UniProt P28370) 0.029
SLC9A3R2 (UniProt Q15599) 0.007
SNRPC (UniProt P09234) -0.112
SNRPE (UniProt P62304) 0.011
SNAPIN (UniProt O95295) -0.085
SMYD5 (UniProt Q6GMV2) -0.011

Quoted at random: two entries already listed
log2 fold change, inactive:
SNRPA (UniProt P09012) -0.12
SLMAP (UniProt Q14BN4) 0.024
